Source: publication PMC6705763
No constants are given. Whether binding was seen depends on the method and setting. Binding can be weak; no strength is given. Tags and fused reporters may be left off the sequences shown. For part of these data: Binding seen in cells or lysates may run through a third protein.

Sequences of proteins named here, by UniProt entry; tags and fusion partners are left off. A change or cut given only in a name is not applied to a line headed by its entry.
UniProt Q9LI00: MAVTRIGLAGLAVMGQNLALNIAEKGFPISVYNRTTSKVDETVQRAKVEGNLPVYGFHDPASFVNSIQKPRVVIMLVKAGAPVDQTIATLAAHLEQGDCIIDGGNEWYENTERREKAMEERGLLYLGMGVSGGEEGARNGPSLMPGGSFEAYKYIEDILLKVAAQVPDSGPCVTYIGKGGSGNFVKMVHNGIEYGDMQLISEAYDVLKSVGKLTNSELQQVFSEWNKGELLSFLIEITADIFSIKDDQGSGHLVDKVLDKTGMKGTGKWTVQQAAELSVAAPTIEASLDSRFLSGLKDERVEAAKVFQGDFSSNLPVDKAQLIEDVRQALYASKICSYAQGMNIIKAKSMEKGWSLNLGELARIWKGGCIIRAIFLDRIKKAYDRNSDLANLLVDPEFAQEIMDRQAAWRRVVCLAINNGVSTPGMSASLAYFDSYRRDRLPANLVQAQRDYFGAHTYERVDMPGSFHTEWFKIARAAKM

T1: OsMADS16 (pGBKT7-OsMADS16, GAL4 DNA-binding domain fusion) (rice (Oryza sativa L.)) (UniProt Q944S9)
T1 sequence: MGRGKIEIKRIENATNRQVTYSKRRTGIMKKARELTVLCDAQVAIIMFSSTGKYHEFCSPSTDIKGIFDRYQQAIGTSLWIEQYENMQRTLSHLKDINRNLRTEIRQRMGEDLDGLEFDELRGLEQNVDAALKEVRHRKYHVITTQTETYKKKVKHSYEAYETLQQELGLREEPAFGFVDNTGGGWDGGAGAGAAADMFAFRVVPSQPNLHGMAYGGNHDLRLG

T2: nYFP-OsMADS16 (pCAMBIA1300S-YN-OsMADS16) (rice (Oryza sativa L.)) (UniProt Q944S9)
T2 sequence: T1 sequence

B1: OsMADS16-Flag (pCAMBIA2300-OsMADS16-Flag) (protein, UniProt Q944S9 1-224)
chain: T1 sequence

Tests used:
[1] = molecular target: T1, OsMADS16 (pGBKT7-OsMADS16, GAL4 DNA-binding domain fusion) (rice (Oryza sativa L.)); assay: two-hybrid; yeast AH109 cotransformed with pGBKT7-OsMADS16 (bait) and pGADT7 with the full-length CDS of each candidate (prey); selected on SD/-Leu/-Trp/-His and higher stringency SD/-Leu/-Trp/-His/-Ade plates
[2] = molecular target: T2, nYFP-OsMADS16 (pCAMBIA1300S-YN-OsMADS16) (rice (Oryza sativa L.)); assay: split reporter; BiFC in rice protoplasts; OsMADS16 in pCAMBIA1300S-YN, candidates in pCAMBIA2300S-YC; PEG-mediated transfection; confocal microscopy; H2B as nuclear marker
[3] = molecular target: GFP-UN1 (pCXSN-nGFP) (rice (Oryza sativa L.)); assay: co-IP; rice protoplasts cotransformed with pCAMBIA2300-OsMADS16-Flag and pCXSN-nGFP-candidate; lysate bound to GFP-Nanoab-Agarose 2 h at 4°C, washed four times; western blot with anti-Flag or anti-GFP
[4] = molecular target: GFP-OsbHLH40 (pCXSN-nGFP) (rice (Oryza sativa L.)); assay: as above
[5] = molecular target: GFP-ES43 (pCXSN-nGFP) (rice (Oryza sativa L.)); assay: as above
[6] = molecular target: GFP-Os6PGDH (pCXSN-nGFP) (rice (Oryza sativa L.)) (UniProt Q9LI00); assay: as above
[7] = molecular target: GFP-OsCOP9 (pCXSN-nGFP) (rice (Oryza sativa L.)); assay: as above
[8] = molecular target: GFP-26S (pCXSN-nGFP) (rice (Oryza sativa L.)); assay: as above
[9] = molecular target: GFP-SLG (pCXSN-nGFP) (rice (Oryza sativa L.)); assay: as above

Molecule | binding [1] | binding [2] | other results
26S (ATP-dependent 26S proteasome regulatory subunit; pGADT7 prey) (rice (Oryza sativa L.)) | binds |  | 
ES43 (pGADT7 prey) (from UniProt Q7EYS4) | binds |  | 
Os6PGDH (pGADT7 prey) (from UniProt Q9LI00) | binds |  | 
OsCOP9 (pGADT7 prey) (from UniProt Q6ZJ47) | binds |  | 
OsbHLH40 (pGADT7 prey) (from UniProt Q10NS6) | binds |  | 
SLG (pGADT7 prey) (from UniProt Q6YYV8) | binds |  | 
UN1 (pGADT7 prey) (from UniProt Q0JRA3) | binds |  | 
cYFP-26S (pCAMBIA2300S-YC) (rice (Oryza sativa L.)) |  | binds | 
cYFP-ES43 (pCAMBIA2300S-YC) (rice (Oryza sativa L.)) |  | binds | 
cYFP-Os6PGDH (pCAMBIA2300S-YC) (from UniProt Q9LI00) |  | binds | 
cYFP-OsCOP9 (pCAMBIA2300S-YC) (rice (Oryza sativa L.)) |  | binds | 
cYFP-OsbHLH40 (pCAMBIA2300S-YC) (rice (Oryza sativa L.)) |  | binds | 
cYFP-SLG (pCAMBIA2300S-YC) (rice (Oryza sativa L.)) |  | binds | 
cYFP-UN1 (pCAMBIA2300S-YC) (rice (Oryza sativa L.)) |  | binds | 
B1 |  |  | binding [3]: binds; binding [4]: binds; binding [5]: binds; binding [6]: binds; binding [7]: binds; binding [8]: binds; binding [9]: binds
